One data set in a line: peptide synthesis. The note with it: late stage modification step, diacetate.
Data set [1] is described as follows: general procedure: Fmoc solid-phase peptide synthesis; 4-alkoxybenzylalcohol resin; Rink amide resin; DIC, HOBt, DCC, BOP or PyBOP; DCC/HOBt in solution phase. Conditions: late stage modification step, diacetate.

Strings that start with PEPTIDE1 are HELM notation: dots part the residues, brackets hold end groups and non-standard residues.

PEPTIDE1{A.G.G.D.[Sar].K}$$$$V2.0 showed a step yield in the data set “peptide synthesis” of 65%. For the same substance, the “final HPLC purity” value in data set [1] turned out to be 99%.

Values taken from EP1348714B1 (COUNCIL OF SCIENTIFIC AND INDUSTRIAL RESEARCH, priority 2002, dated 2003).
